Measured values taken from paper PMC3757464.
Results are given in words; binding and its absence hold for the method and conditions named. Binding seen in cells or lysates may run through a third protein. Binding calls can cover weak binding; strength is not graded here.

Tests used:
Test in all cases: pull-down; 15 µg recombinant GST-fused Lmo7 domain incubated 1.5 h at 4°C with HeLa lysate (GST Lysis Buffer: 100 mM HEPES pH 7.4, 150 mM NaCl, 2 mM EDTA, 0.1% SDS, 1% Triton X-100, 1 mM DTT), held on glutathione beads; immunoblot for p130Cas or paxillin; only the target purified
[1] = molecular target: GST-fused predicted CH (Calponin Homology) domain of rLmo7a (rat)
[2] = molecular target: GST-fused predicted PDZ domain of rLmo7a (rat)
[3] = molecular target: GST-fused LIM domain of rLmo7a (rat)

Measured: binding

B1: endogenous p130Cas (protein, UniProt P56945 1-870)
chain: MNHLNVLAKALYDNVAESPDELSFRKGDIMTVLEQDTQGLDGWWLCSLHGRQGIVPGNRLKILVGMYDKKPAGPGPGPPATPAQPQPGLHAPAPPASQYTPMLPNTYQPQPDSVYLVPTPSKAQQGLYQVPGPSPQFQSPPAKQTSTFSKQTPHHPFPSPATDLYQVPPGPGGPAQDIYQVPPSAGMGHDIYQVPPSMDTRSWEGTKPPAKVVVPTRVGQGYVYEAAQPEQDEYDIPRHLLAPGPQDIYDVPPVRGLLPSQYGQEVYDTPPMAVKGPNGRDPLLEVYDVPPSVEKGLPPSNHHAVYDVPPSVSKDVPDGPLLREETYDVPPAFAKAKPFDPARTPLVLAAPPPDSPPAEDVYDVPPPAPDLYDVPPGLRRPGPGTLYDVPRERVLPPEVADGGVVDSGVYAVPPPAEREAPAEGKRLSASSTGSTRSSQSASSLEVAGPGREPLELEVAVEALARLQQGVSATVAHLLDLAGSAGATGSWRSPSEPQEPLVQDLQAAVAAVQSAVHELLEFARSAVGNAAHTSDRALHAKLSRQLQKMEDVHQTLVAHGQALDAGRGGSGATLEDLDRLVACSRAVPEDAKQLASFLHGNASLLFRRTKATAPGPEGGGTLHPNPTDKTSSIQSRPLPSPPKFTSQDSPDGQYENSEGGWMEDYDYVHLQGKEEFEKTQKELLEKGSITRQGKSQLELQQLKQFERLEQEVSRPIDHDLANWTPAQPLAPGRTGGLGPSDRQLLLFYLEQCEANLTTLTNAVDAFFTAVATNQPPKIFVAHSKFVILSAHKLVFIGDTLSRQAKAADVRSQVTHYSNLLCDLLRGIVATTKAAALQYPSPSAAQDMVERVKELGHSTQQFRRVLGQLAAA
binds: all assays above
